Measured values as given in US11084847B2, “Polyamide compound and use thereof” (SICHUAN KELUN-BIOTECH BIOPHARMACEUTICAL CO., LTD., priority 2016, dated 2021).
For at least one compound, name, drawing or mass did not settle the structure.

Columns and labels:
KOR = KOR (Homo sapiens, UniProt P41145); experiment: Opioid receptor selectivity, radioligand competition binding (3H-diprenophrine) on cell membranes; details: KOR versus MOR and DOR binding
Procedure: The selectivity of the compounds of the invention for κ opioid receptors was determined by measuring the inhibitory effect of the compounds of Examples on the […] of KOR, MOR, and DOR.
The compounds of Examples at different concentrations were incubated with the cell membrane with high expression of KOR, MOR, DOR and the corresponding radioligand (KOR: 3H-diprenophrine; MOR: 3H-DAMGO; DOR: 3H-DADLE) for 1 h, the compounds of Examples competed with the radioligands for binding to KOR, MOR, DOR. After the incubation, Cell harvest was used to collect cell membranes onto a Unifilter-96 GF/C filter plate, and the unbound radioligands were washed away. The plate was placed in a 50-degree oven for 1 h, and finally the scintillation solution Microscint 20 cocktail was added and the isotope signal was detected by MicroBeta2 Reader.
According to the intensity of the isotope signal at different concentrations, the IC50 was calculated by means of fitting with a four-parameter equation, and the Ki value was calculated.
The Ki value was calculated according to the formula Ki=IC50/(1+[radioligand]/Kd), and Kd was the equilibrium dissociation constant of radioligand.

male ICR mice = experiment: Acetic acid-induced writhing test in mice; assay type: in vivo; details: iv
Procedure: The analgesic effect of the compound of the invention was evaluated by measuring the ED50 of the compounds of Examples in the acetic acid-induced writhing test in mice.
The commercial glacial acetic acid solution was diluted with physiological saline to 0.6% glacial acetic acid solution. The male ICR mice were randomly separated into the drug group and the model group (to which physiological saline was administration). 15 minutes after iv administration, 0.6% acetic acid solution was intraperitoneally injected at 10 ml/kg, and the mice was immediately recorded with DV camera for 15 min. After the recording, the number of writhes of the mice within 15 min was counted from the video by blind method, the inhibition rate for the writhes was calculated according to Formula (I), and the ED50 of the compound was calculated according to Formula (II).
(I) The inhibition rate for the writhes was calculated by the formula: Inhibition rate (%)=(the number of writhes in a model group−the number of writhes in a drug group)/the number of writhes in a model group*100.
(II) The ED50 was calculated by the formula:
[formula] wherein Xm was the logarithm of the highest dose, d was the difference in the logarithm of two adjacent doses, p was the inhibition rate for each dose group, pm was the highest-dose inhibition rate, and pn was the lowest-dose inhibition rate.

SMILES	KOR selectivity (in words) (KOR)	analgesic effect (in words) (male ICR mice)
CC(C)C[C@@H](NC(=O)[C@@H](Cc1ccccc1)NC(=O)[C@H](N)Cc1ccccc1)C(=O)N[C@H](CCCCNCCN)C(=O)N1CCC(N)(C(=O)O)CC1 [Example 3, 4-amino-1-((R)-2-((R)-2-((R)-2-((R)-2-amino-3-phenylpropanamido)-3-phenylpropanamido)-4-methylpentanamido)-6-((2-aminoethyl)amino)hexanoyl)piperidin-4-carboxylic acid]	excellent KOR selectivity	significant analgesic effect
CC(C)C[C@@H](NC(=O)[C@@H](Cc1ccccc1)NC(=O)[C@H](N)Cc1ccccc1)C(=O)N[C@H](CCCCNCCCN)C(=O)N1CCC(N)(C(=O)O)CC1 [Example 4, 4-amino-1-((R)-2-((R)-2-((R)-2-((R)-2-amino-3-phenylpropanamido)-3-phenylpropanamido)-4-methylpentanamido)-6-((3-aminopropyl)amino)hexanoyl)piperidin-4-carboxylic acid]	excellent KOR selectivity	significant analgesic effect
